This passage reports binding results from article PMC12622526.

Results are given in words; binding and its absence hold for the method and conditions named. In cells and extracts the contact can be indirect. Some binding calls cover weakened binding; strength is not graded here. For some assays here: Tags and fused reporters may be left off the sequences shown.

Assay [1] concerns the target COA4 (cytochrome c oxidase assembly factor 4), endogenous (human) (UniProt Q9NYJ1). The experiment in a line: proximity ligation; in situ Duolink PLA (Sigma–Aldrich DUO92101) in A549, 293T and H23 cells.
For assay [2], the target named is COA4‐Flag (human cytochrome c oxidase assembly factor 4), transfected in A549 cells (human) (UniProt Q9NYJ1). The experiment in a line: co-IP; Co‐IP of COA4‐Flag from transfected A549 cells; Pierce IP Lysis Buffer, primary antibody and Protein A/G magnetic beads overnight at 4 °C, Western blot. For orientation: Immunoblotting shows a protein as a band on a membrane.

B1: SLC25A3 (protein, UniProt Q00325 50-362)
chain: AVEEQYSCDYGSGRFFILCGLGGIISCGTTHTALVPLDLVKCRMQVDPQKYKGIFNGFSVTLKEDGVRGLAKGWAPTFLGYSMQGLCKFGFYEVFKVLYSNMLGEENTYLWRTSLYLAASASAEFFADIALAPMEAAKVRIQTQPGYANTLRDAAPKMYKEEGLKAFYKGVAPLWMRQIPYTMMKFACFERTVEALYKFVVPKPRSECSKPEQLVVTFVAGYIAGVFCAIVSHPADSVVSVLNKEKGSSASLVLKRLGFKGVWKGLFARIIMIGTLTALQWFIYDSVKVYFRLPRPPPPEMPESLKKKLGLTQ
As for B1, the binding result in assay [1] and in assay [2] was “binds” each time.
